{"source": "ChEMBL document CHEMBL4316593", "about": "(Eur J Med Chem, 2019)", "format_in_all_cases": "cell-based", "settings_in_all_cases": "U-87MG ATCC", "key": {"[1]": {"assay": "Inhibition of RTK/PI3K/AKT/mTOR signaling in human U87 cells assessed as down regulation of TMEM117 gene expression at cytotoxic IC50 measured after 48 hrs relative to control"}, "[2]": {"assay": "Inhibition of RTK/PI3K/AKT/mTOR signaling in human U87 cells assessed as up regulation of tryptophanyl-tRNA synthetase gene expression at cytotoxic IC50 measured after 48 hrs relative to control"}, "[3]": {"assay": "Inhibition of RTK/PI3K/AKT/mTOR signaling in human U87 cells assessed as up regulation of out at first homolog gene expression at cytotoxic IC50 measured after 48 hrs relative to control"}, "[4]": {"assay": "Inhibition of RTK/PI3K/AKT/mTOR signaling in human U87 cells assessed as up regulation of IL11 gene expression at cytotoxic IC50 measured after 48 hrs relative to control"}, "[5]": {"assay": "Inhibition of RTK/PI3K/AKT/mTOR signaling in human U87 cells assessed as up regulation of tigger transposable element derived 5 gene expression at cytotoxic IC50 measured after 48 hrs relative to control"}, "[6]": {"assay": "Inhibition of RTK/PI3K/AKT/mTOR signaling in human U87 cells assessed as down regulation of HSPE1 gene expression at cytotoxic IC50 measured after 48 hrs relative to control"}, "[7]": {"assay": "Inhibition of RTK/PI3K/AKT/mTOR signaling in human U87 cells assessed as up regulation of dynein axonemal assembly factor 5 gene expression at cytotoxic IC50 measured after 48 hrs relative to control"}, "[8]": {"assay": "Inhibition of RTK/PI3K/AKT/mTOR signaling in human U87 cells assessed as up regulation of caveolin 1 gene expression at cytotoxic IC50 measured after 48 hrs relative to control"}, "[9]": {"assay": "Inhibition of RTK/PI3K/AKT/mTOR signaling in human U87 cells assessed as down regulation of MAPRE1 gene expression at cytotoxic IC50 measured after 48 hrs relative to control"}, "[10]": {"assay": "Inhibition of RTK/PI3K/AKT/mTOR signaling in human U87 cells assessed as up regulation of SYT12 gene expression at cytotoxic IC50 measured after 48 hrs relative to control"}, "[11]": {"assay": "Inhibition of RTK/PI3K/AKT/mTOR signaling in human U87 cells assessed as down regulation of CCDC174 gene expression at cytotoxic IC50 measured after 48 hrs relative to control"}, "[12]": {"assay": "Inhibition of RTK/PI3K/AKT/mTOR signaling in human U87 cells assessed as up regulation of RPS11 gene expression at cytotoxic IC50 measured after 48 hrs relative to control"}, "[13]": {"assay": "Inhibition of RTK/PI3K/AKT/mTOR signaling in human U87 cells assessed as down regulation of GPAT3 gene expression at cytotoxic IC50 measured after 48 hrs relative to control"}, "[14]": {"assay": "Inhibition of RTK/PI3K/AKT/mTOR signaling in human U87 cells assessed as down regulation of GNAI2 gene expression at cytotoxic IC50 measured after 48 hrs relative to control"}, "[15]": {"assay": "Inhibition of RTK/PI3K/AKT/mTOR signaling in human U87 cells assessed as down regulation of DCP1A gene expression at cytotoxic IC50 measured after 48 hrs relative to control"}, "[16]": {"assay": "Inhibition of RTK/PI3K/AKT/mTOR signaling in human U87 cells assessed as up regulation of myosin XVB gene expression at cytotoxic IC50 measured after 48 hrs relative to control"}, "[17]": {"assay": "Inhibition of RTK/PI3K/AKT/mTOR signaling in human U87 cells assessed as up regulation of DNA damage regulated autophagy modulator 1 gene expression at cytotoxic IC50 measured after 48 hrs relative to control"}, "[18]": {"assay": "Inhibition of RTK/PI3K/AKT/mTOR signaling in human U87 cells assessed as down regulation of FN3KRP gene expression at cytotoxic IC50 measured after 48 hrs relative to control"}, "[19]": {"assay": "Inhibition of RTK/PI3K/AKT/mTOR signaling in human U87 cells assessed as up regulation of LCN2 gene expression at cytotoxic IC50 measured after 48 hrs relative to control"}, "[20]": {"assay": "Inhibition of RTK/PI3K/AKT/mTOR signaling in human U87 cells assessed as down regulation of EIF2AK2 gene expression at cytotoxic IC50 measured after 48 hrs relative to control"}, "[21]": {"assay": "Inhibition of RTK/PI3K/AKT/mTOR signaling in human U87 cells assessed as up regulation of WNT6 gene expression at cytotoxic IC50 measured after 48 hrs relative to control"}, "[22]": {"assay": "Inhibition of RTK/PI3K/AKT/mTOR signaling in human U87 cells assessed as up regulation of sterile alpha motif domain containing 1 gene expression at cytotoxic IC50 measured after 48 hrs relative to control"}, "[23]": {"assay": "Inhibition of RTK/PI3K/AKT/mTOR signaling in human U87 cells assessed as down regulation of PMP22 gene expression at cytotoxic IC50 measured after 48 hrs relative to control"}, "[24]": {"assay": "Inhibition of RTK/PI3K/AKT/mTOR signaling in human U87 cells assessed as down regulation of TMX4 gene expression at cytotoxic IC50 measured after 48 hrs relative to control"}, "[25]": {"assay": "Inhibition of RTK/PI3K/AKT/mTOR signaling in human U87 cells assessed as down regulation of CALM1 gene expression at cytotoxic IC50 measured after 48 hrs relative to control"}, "[26]": {"assay": "Inhibition of RTK/PI3K/AKT/mTOR signaling in human U87 cells assessed as up regulation of LOC554223 gene expression at cytotoxic IC50 measured after 48 hrs relative to control"}, "[27]": {"assay": "Inhibition of RTK/PI3K/AKT/mTOR signaling in human U87 cells assessed as up regulation of TRAF3 gene expression at cytotoxic IC50 measured after 48 hrs relative to control"}, "[28]": {"assay": "Inhibition of RTK/PI3K/AKT/mTOR signaling in human U87 cells assessed as down regulation of NRGN gene expression at cytotoxic IC50 measured after 48 hrs relative to control"}, "[29]": {"assay": "Inhibition of RTK/PI3K/AKT/mTOR signaling in human U87 cells assessed as up regulation of GLRX gene expression at cytotoxic IC50 measured after 48 hrs relative to control"}, "[30]": {"assay": "Inhibition of RTK/PI3K/AKT/mTOR signaling in human U87 cells assessed as down regulation of TOPBP1 gene expression at cytotoxic IC50 measured after 48 hrs relative to control"}, "[31]": {"assay": "Inhibition of RTK/PI3K/AKT/mTOR signaling in human U87 cells assessed as up regulation of ABI2 gene expression at cytotoxic IC50 measured after 48 hrs relative to control"}, "[32]": {"assay": "Inhibition of RTK/PI3K/AKT/mTOR signaling in human U87 cells assessed as down regulation of DHX38 gene expression at cytotoxic IC50 measured after 48 hrs relative to control"}}, "note": "This continues a long series; more values of the same kind are listed elsewhere."}
{"smiles": "CC(=O)C(=NNc1ccccc1C#N)C(C)=O", "values": [{"measurement": "log2FC", "setting": "[1]", "result": -1.9}, {"measurement": "log2FC", "setting": "[2]", "result": 0.692}, {"measurement": "log2FC", "setting": "[3]", "result": 1.01}, {"measurement": "log2FC", "setting": "[4]", "result": 1.57}, {"measurement": "log2FC", "setting": "[5]", "result": 1.39}, {"measurement": "log2FC", "setting": "[6]", "result": -0.651}, {"measurement": "log2FC", "setting": "[7]", "result": 1.02}, {"measurement": "log2FC", "setting": "[8]", "result": 1.24}, {"measurement": "log2FC", "setting": "[9]", "result": -0.708}, {"measurement": "log2FC", "setting": "[10]", "result": 2.42}, {"measurement": "log2FC", "setting": "[11]", "result": -1.05}, {"measurement": "log2FC", "setting": "[12]", "result": 0.46}, {"measurement": "log2FC", "setting": "[13]", "result": -1.33}, {"measurement": "log2FC", "setting": "[14]", "result": -0.597}, {"measurement": "log2FC", "setting": "[15]", "result": -0.427}, {"measurement": "log2FC", "setting": "[16]", "result": 1.39}, {"measurement": "log2FC", "setting": "[17]", "result": 0.932}, {"measurement": "log2FC", "setting": "[18]", "result": -0.935}, {"measurement": "log2FC", "setting": "[19]", "result": 2.66}, {"measurement": "log2FC", "setting": "[20]", "result": -0.667}, {"measurement": "log2FC", "setting": "[21]", "result": 2.19}, {"measurement": "log2FC", "setting": "[22]", "result": 1.27}, {"measurement": "log2FC", "setting": "[23]", "result": -0.98}, {"measurement": "log2FC", "setting": "[24]", "result": -1.03}, {"measurement": "log2FC", "setting": "[25]", "result": -1.04}, {"measurement": "log2FC", "setting": "[26]", "result": 3.92}, {"measurement": "log2FC", "setting": "[27]", "result": 0.64}, {"measurement": "log2FC", "setting": "[28]", "result": -1.75}, {"measurement": "log2FC", "setting": "[29]", "result": 2.1}, {"measurement": "log2FC", "setting": "[30]", "result": -0.67}, {"measurement": "log2FC", "setting": "[31]", "result": 0.552}, {"measurement": "log2FC", "setting": "[32]", "result": -0.71}]}
